PubChem BioAssay AID504786, Drosophila RNAi Screening Center – 2011
Screen: 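Knock-downs reducing HIF reporter induction by the iron chelator DFO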 (primary screen). Cells: Drosophila S2 cells with a stable HIF luciferase reporter. Reagents: long dsRNA against Drosophila genes, about 0.2 µg dsRNA per well of a 384-well plate. Timing: three days of knock-down, then 20 h of DFO before reading. Conditions: desferrioxamine (DFO) at 100 µM, an iron chelator that mimics hypoxia, for 20 h. Measurement: 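HIF reporter luminescence in cells given 100 µM DFO for 20 h, using the mouse ldh-a hypoxia-response element, scored as per-plate z-scores; higher means greater loss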. Direction: z-score: higher = stronger loss of HIF reporter signal.
The screen tested about 21,000 reagents; below is an unselected part of those with a known target gene and a result. 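Primary screen; positive scores mean lost reporter signal, so the sign may be inverted from the usual convention.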 A plus sign joins genes that one reagent is predicted to hit. Reagent sequences are not shown.

Silencing of t (tan) [DRSC17815] resulted in: z-score, replicate 1 = -0.3; z-score, replicate 2 = -0.5.
Silencing of CG7322 [DRSC20036] resulted in: z-score, replicate 1 = -0.4; z-score, replicate 2 = -0.2.
Depletion of CG7810 [DRSC03072] gave: z-score, replicate 1 = -0.3; z-score, replicate 2 = -0.6.
With knock-down of lmd (lame duck) [DRSC15618], the record shows z-score, replicate 1 = -0.2; z-score, replicate 2 = -0.1.
Against clt (cricklet) [DRSC04621], the values are z-score, replicate 1 = -0.2; z-score, replicate 2 = -0.4.
Against yellow-b [DRSC03639], the entry reads z-score, replicate 1 = -0.3; z-score, replicate 2 = -0.4.
Against CG42304 + Snup [DRSC08276], the entry reads z-score, replicate 1 = 0.2; z-score, replicate 2 = 1.
CG42304 + Snup [DRSC08277] showed z-score, replicate 1 = -0.4; z-score, replicate 2 = -0.5.
Depletion of CG15443 [DRSC00455] gave: z-score, replicate 1 = -0.2; z-score, replicate 2 = 0.4.
With knock-down of CG17261 [DRSC00498], the record shows z-score, replicate 1 = -0.3; z-score, replicate 2 = -0.3.
Knock-down of CG2915 [DRSC06842] resulted in: z-score, replicate 1 = -0.3; z-score, replicate 2 = -0.2.
For RpL11 (Ribosomal protein L11) [DRSC07537] the deposit lists z-score, replicate 1 = -0.3; z-score, replicate 2 = -0.5.
CG31089 [DRSC15934] gave z-score, replicate 1 = -0.3; z-score, replicate 2 = -0.6.
Nep4 (Neprilysin 4) [DRSC15539] showed z-score, replicate 1 = -0.2; z-score, replicate 2 = -0.4.
Odc1 (Ornithine decarboxylase 1) [DRSC07482] showed z-score, replicate 1 = -0.4; z-score, replicate 2 = -0.3.
Against Vav (Vav guanine nucleotide exchange factor) [DRSC20384] the deposit lists z-score, replicate 1 = -0.5; z-score, replicate 2 = -0.6.
After knock-down of CG13532 [DRSC04174] the results were z-score, replicate 1 = -0.3; z-score, replicate 2 = -0.4.
Depletion of CG5131 [DRSC02817] came out at: z-score, replicate 1 = -0.4; z-score, replicate 2 = -0.5.
Knock-down of CG18417 [DRSC10319] resulted in: z-score, replicate 1 = -0.2; z-score, replicate 2 = 0.
Zip71B (Zinc/iron regulated transporter-related protein 71B) [DRSC09686] showed z-score, replicate 1 = -0.3; z-score, replicate 2 = -0.6.
Against whe (what else) [DRSC20537], the entry reads z-score, replicate 1 = -0.1; z-score, replicate 2 = 0.4.
Dhpr (Dihydropteridine reductase) [DRSC11135] showed z-score, replicate 1 = -0.4; z-score, replicate 2 = 0.
After knock-down of Jon25Biii (Jonah 25Biii) [DRSC03115], the record shows z-score, replicate 1 = -0.1; z-score, replicate 2 = 0.
For CrzR (Corazonin receptor) [DRSC09781], the entry reads z-score, replicate 1 = -0.3; z-score, replicate 2 = -0.1.
CrzR (Corazonin receptor) [DRSC09782] scored z-score, replicate 1 = -0.3; z-score, replicate 2 = -0.1.
For CG15578 [DRSC18066], the values are z-score, replicate 1 = -0.2; z-score, replicate 2 = 0.3.
VhaM9.7-b (Vacuolar H[+] ATPase M9.7 subunit b) [DRSC11841] scored z-score, replicate 1 = -0.3; z-score, replicate 2 = -0.6.
capt (capulet) [DRSC00676] showed z-score, replicate 1 = -0.2; z-score, replicate 2 = -0.5.
After knock-down of capt (capulet) [DRSC00806] the results were z-score, replicate 1 = -0.5; z-score, replicate 2 = -0.4.
With knock-down of DCTN2-p50 (Dynactin 2, p50 subunit) [DRSC07132], the screen gave z-score, replicate 1 = -0.4; z-score, replicate 2 = -0.3.
Culd (CUB and LDLa domain) [DRSC10262] gave z-score, replicate 1 = -0.3; z-score, replicate 2 = -0.3.
After knock-down of Scp1 (Sarcoplasmic calcium-binding protein 1) [DRSC20799], the record shows z-score, replicate 1 = 0.3; z-score, replicate 2 = -0.1.
Against Scp1 (Sarcoplasmic calcium-binding protein 1) [DRSC20803], the values are z-score, replicate 1 = 0.9; z-score, replicate 2 = -0.3.
Scp1 (Sarcoplasmic calcium-binding protein 1) [DRSC20806] showed z-score, replicate 1 = -0.1; z-score, replicate 2 = -0.3.
For pcx (pecanex) [DRSC18186] the deposit lists z-score, replicate 1 = -0.3; z-score, replicate 2 = 0.1.
Against pcx (pecanex) [DRSC18187], the entry reads z-score, replicate 1 = -0.3; z-score, replicate 2 = 0.4.
After knock-down of pcx (pecanex) [DRSC18188], the record shows z-score, replicate 1 = -0.3; z-score, replicate 2 = 0.4.
Knock-down of pcx (pecanex) [DRSC18189] resulted in: z-score, replicate 1 = -0.1; z-score, replicate 2 = 0.1.
With knock-down of pcx (pecanex) [DRSC18190], the record shows z-score, replicate 1 = -0.2; z-score, replicate 2 = 0.4.
After knock-down of pcx (pecanex) [DRSC18816], the screen gave z-score, replicate 1 = -0.2; z-score, replicate 2 = -0.1.

Already shown: 6 of the entries above.
RpL11 (Ribosomal protein L11) [DRSC07537] | z-score, replicate 1: -0.3; z-score, replicate 2: -0.5
CG31089 [DRSC15934] | z-score, replicate 1: -0.3; z-score, replicate 2: -0.6
Nep4 (Neprilysin 4) [DRSC15539] | z-score, replicate 1: -0.2; z-score, replicate 2: -0.4
Odc1 (Ornithine decarboxylase 1) [DRSC07482] | z-score, replicate 1: -0.4; z-score, replicate 2: -0.3
Vav (Vav guanine nucleotide exchange factor) [DRSC20384] | z-score, replicate 1: -0.5; z-score, replicate 2: -0.6
CG13532 [DRSC04174] | z-score, replicate 1: -0.3; z-score, replicate 2: -0.4
